These are yes or no findings as the source states them, for the method shown. In cells and extracts the contact can be indirect.
Target: murine double minute chromosome 2 (MDM2) oncoprotein, endogenous in A375 cells (human (endogenous in A375)), Q00987
Assay: co-IP; A375 lysate, untransfected or transfected with untagged MDM2; MDM2 (antibodies 2A10, 2A9, 4B2, 3G5, SMP14) or CK1α (antibody C-19) immunoprecipitated on Protein G Sepharose; Western blot
Conditions: remark: other sources report otherwise

Row | binding | Binder
1 | no binding | CK1δ, endogenous in A375 cells, P48730 1-415 (protein) MELRVGNRYRLGRKIGSGSFGDIYLGTDIAAGEEVAIKLECVKTKHPQLHIESKIYKMMQGGVGIPTIRWCGAEGDYNVMVMELLGPSLEDLFNFCSRKFSLKTVLLLADQMISRIEYIHSKNFIHRDVKPDNFLMGLGKKGNLVYIIDFGLAKKYRDARTHQHIPYRENKNLTGTARYASINTHLGIEQSRRDDLESLGYVLMYFNLGSLPWQGLKAATKRQKYERISEKKMSTPIEVLCKGYPSEFATYLNFCRSLRFDDKPDYSYLRQLFRNLFHRQGFSYDYVFDWNMLKFGASRAADDAERERRDREERLRHSRNPATRGLPSTASGRLRGTQEVAPPTPLTPTSHTANTSPRPVSGMERERKVSMRLHRGAPVNISSSDLTGRQDTSRMSTSQIPGRVASSGLQSVVHR
2 | no binding | CK1ε, endogenous in A375 cells, P49674 1-416 (protein) MELRVGNKYRLGRKIGSGSFGDIYLGANIASGEEVAIKLECVKTKHPQLHIESKFYKMMQGGVGIPSIKWCGAEGDYNVMVMELLGPSLEDLFNFCSRKFSLKTVLLLADQMISRIEYIHSKNFIHRDVKPDNFLMGLGKKGNLVYIIDFGLAKKYRDARTHQHIPYRENKNLTGTARYASINTHLGIEQSRRDDLESLGYVLMYFNLGSLPWQGLKAATKRQKYERISEKKMSTPIEVLCKGYPSEFSTYLNFCRSLRFDDKPDYSYLRQLFRNLFHRQGFSYDYVFDWNMLKFGAARNPEDVDRERREHEREERMGQLRGSATRALPPGPPTGATANRLRSAAEPVASTPASRIQPAGNTSPRAISRVDRERKVSMRLHRGAPANVSSSDLTGRQEVSRIPASQTSVPFDHLGK
